The record followed here is publication PMC4823752.

The chains behind the UniProt entries cited, without tags or fusion partners. Residues count along the entry.
UniProt P70211, residues 26-1447: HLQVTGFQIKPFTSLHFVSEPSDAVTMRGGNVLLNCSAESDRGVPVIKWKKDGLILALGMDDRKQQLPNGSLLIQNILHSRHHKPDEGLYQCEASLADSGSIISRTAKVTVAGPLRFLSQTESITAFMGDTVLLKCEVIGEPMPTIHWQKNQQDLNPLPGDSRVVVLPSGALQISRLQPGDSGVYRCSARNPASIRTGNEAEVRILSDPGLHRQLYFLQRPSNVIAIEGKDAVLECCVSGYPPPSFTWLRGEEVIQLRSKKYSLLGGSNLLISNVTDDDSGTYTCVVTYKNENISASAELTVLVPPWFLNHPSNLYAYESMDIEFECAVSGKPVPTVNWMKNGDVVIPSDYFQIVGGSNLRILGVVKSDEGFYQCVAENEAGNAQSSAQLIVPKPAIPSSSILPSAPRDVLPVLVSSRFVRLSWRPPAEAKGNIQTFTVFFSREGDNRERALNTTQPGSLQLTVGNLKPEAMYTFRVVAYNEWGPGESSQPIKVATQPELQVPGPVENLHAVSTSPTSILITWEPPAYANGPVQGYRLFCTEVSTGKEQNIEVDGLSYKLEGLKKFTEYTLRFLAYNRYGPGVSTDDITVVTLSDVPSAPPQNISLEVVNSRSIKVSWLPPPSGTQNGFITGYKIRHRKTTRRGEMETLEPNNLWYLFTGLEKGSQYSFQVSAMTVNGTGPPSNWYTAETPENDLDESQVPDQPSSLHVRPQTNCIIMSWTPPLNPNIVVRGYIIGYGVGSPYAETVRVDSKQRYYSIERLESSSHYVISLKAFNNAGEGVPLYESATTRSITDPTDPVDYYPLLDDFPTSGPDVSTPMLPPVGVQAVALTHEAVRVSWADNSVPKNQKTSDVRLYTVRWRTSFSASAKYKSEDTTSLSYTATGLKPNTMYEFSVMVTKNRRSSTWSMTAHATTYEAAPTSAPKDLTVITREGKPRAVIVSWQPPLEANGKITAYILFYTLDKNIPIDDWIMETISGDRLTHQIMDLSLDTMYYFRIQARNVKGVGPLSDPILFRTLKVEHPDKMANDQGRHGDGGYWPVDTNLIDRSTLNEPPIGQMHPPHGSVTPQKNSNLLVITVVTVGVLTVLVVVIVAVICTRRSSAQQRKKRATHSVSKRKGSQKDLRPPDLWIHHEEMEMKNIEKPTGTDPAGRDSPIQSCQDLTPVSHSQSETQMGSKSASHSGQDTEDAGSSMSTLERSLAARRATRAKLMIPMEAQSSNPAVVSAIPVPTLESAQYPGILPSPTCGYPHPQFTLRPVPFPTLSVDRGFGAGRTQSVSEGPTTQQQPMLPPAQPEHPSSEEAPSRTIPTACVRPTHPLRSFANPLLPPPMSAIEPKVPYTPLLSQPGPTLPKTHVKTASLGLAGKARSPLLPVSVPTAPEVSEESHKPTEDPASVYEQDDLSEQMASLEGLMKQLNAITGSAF

This assay addresses DCC without CRY2 (DCC) (Mus musculus) (UniProt P70211). Briefly: co-IP; myc-tagged and V5-tagged copies co-expressed in HEK293T; cells exposed to blue light pulses (440 nm LED) for 15 min, lysed in PLC buffer (50 mM HEPES pH 7.5, 150 mM NaCl, 1% Triton X-100); IP with anti-V5 antibody on Protein G sepharose, 4 °C, 30 min; blot for myc.

These are yes or no findings as the source states them, for the method shown. Binding seen in cells or lysates may run through a third protein.

With “DCC without CRY2 (DCC) (from UniProt P70211 26-1447) (receptor)”, the binding entry is “no binding”.
